Results taken from patent publication US20140308281A1 (OSE IMMUNOTHERAPEUTICS, published 2014).
These are yes or no findings as the source states them, for the method shown. Some entries that bind do so weakly or less than the wild type. For some of these results: Sequences can lack the tags named with a protein.

Tests used:
[1] = molecular target: CD127 on Cynomolgus Macaque T cells (Cynomolgus Macaque) (UniProt Q38IC7); experiment: flow cytometry on macaque T cells (PBMCs)
[2] = molecular target: CD127 on Cynomolgus Macaque T cells (Cynomolgus Macaque) (UniProt Q38IC7); experiment: flow cytometry on macaque PBMCs [B]
[3] = molecular target: CD127 on baboon T cells (baboon); experiment: flow cytometry on baboon T cells (PBMCs)
[4] = molecular target: CD127 on baboon T cells (baboon); experiment: flow cytometry on baboon PBMCs [B]
[5] = molecular target: T1, Recombinant CD127 Fc Chimera (10975-H03H, Sino Biological) (human) (UniProt P16871); experiment: hybridoma screening on recombinant CD127 Fc Chimera
T1 sequence (looked up): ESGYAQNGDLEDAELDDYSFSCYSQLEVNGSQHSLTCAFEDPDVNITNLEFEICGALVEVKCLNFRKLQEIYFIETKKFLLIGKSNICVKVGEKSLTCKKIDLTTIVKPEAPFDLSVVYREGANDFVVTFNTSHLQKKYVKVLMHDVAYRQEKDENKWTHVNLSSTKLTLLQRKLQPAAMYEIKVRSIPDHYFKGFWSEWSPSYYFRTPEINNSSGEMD

[6] = molecular target: T2, Recombinant hCD127 (Sino Biologicals, reference 10975-H08H) (human) (UniProt P16871); experiment: ELISA, plate coated with recombinant human IL-7 receptor at 5 µg/ml, anti-rat Ig peroxidase detection
T2 sequence (looked up): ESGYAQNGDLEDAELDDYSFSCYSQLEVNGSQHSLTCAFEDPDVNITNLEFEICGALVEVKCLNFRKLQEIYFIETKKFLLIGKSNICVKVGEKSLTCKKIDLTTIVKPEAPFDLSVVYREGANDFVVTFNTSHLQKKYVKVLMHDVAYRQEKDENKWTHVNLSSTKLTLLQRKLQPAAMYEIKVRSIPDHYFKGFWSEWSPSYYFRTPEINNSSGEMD

[7] = molecular target: T2, Recombinant hCD127 (Sino Biologicals, reference 10975-H08H) (human); experiment: ELISA, recombinant hCD127 immobilized on plastic
[8] = molecular target: CD127 expressed by human T cells (human) (UniProt P16871); experiment: hybridoma screening on human T cells
[9] = molecular target: CD127 expressed by human T cells (human) (UniProt P16871); experiment: flow cytometry on human PBMCs [B]
[10] = molecular target: CD127 on baboon T cells (baboon); experiment: flow cytometry on baboon PBMCs [A]

Measured: binding

B1: MD707-13 (antibody, V domains shown)
VH: QLKESGPGLVQPSQTLSLTCTVSGLSLPNNNIAWIRQSPGKGLEWMGVIWSNGDTDYNSAIRSRLSISRDSSKSQVFLRMNSLQSEDTAMYFCAREGMTTLDYWGQGVVVTVSS
VL: EIVLTQSPTTMAASPGEKVTITCRASSSVSYMHWFQQKSGSSPKPWIYDSSDLASGVPDRFSGSGSGTSYSLTISSMEAEDAATYYCLQRSSYPRTFGGGTKLELKR
notes: also called 7MD07-13; rat anti-human CD127 Mab MD707-13
not listed: [10]
binds: all other assays above

B2: MD707-1 (antibody, V domains shown)
VH: AVHLVESGGGLVQPKESLKISCAASGFTFSNAAMFWVRQAPGKGLEWVARIRTKANNYATYYADSVKGRFTISRDDSKSMVYLQMDNVKTDDTAMYYCIVVVLTTTRDYFDYWGQGVMVTVSS
VL: DIVLTQAPLSVSVTPGESASISCRSSQSLLTVKGITSLYWFLQKPGKSPQLLMYRMSNLASGVPDRFRGSGSETDFTLKISKVETEDVGVYYCAQFLEYPHTFGAGTKLELKR
notes: also called 7MD07-1; rat anti-human CD127 Mab MD707-1
binds: [3] | [10]

B3: MD707-3 (antibody, V domains shown)
VH: AVHLVESGGGLVQPKESLKISCAASGFTFSNAAMYWVRQAPGKGLEWVARIRTKANNYATYYAESVKGRFTISRDDSKSMVYLQMDNVKTDDTAMYYCIVVVLTTTRDYFDYWGQGVMVTVSS
VL: DIVLTQAPLSVSVTPGESASISCRSSQSLLTVKGITSLYWFLQKPGKSPQLLIYRMSNLASGVPDRFRGSGSETDFTLKISKVETEDVGVYYCAQFLEYPHTFGAGTKLELKR
notes: also called 7MD07-3; rat anti-human CD127 Mab MD707-3
binds: [3] | [10]
